In PubChem BioAssay AID328 (DTP/NCI, 2004):
The list shows only some results of the screen, not a fair sample: it is rich in T/C values a quarter to a half above the control, in often repeated tests (any T/C) and in doses without a T/C. Other doses and runs of a compound stand elsewhere. T/C is the treated group as % of the vehicle group. Some doses have a count of surviving animals in place of a T/C: the source holds a T/C of zero for them, seemingly a mark for toxic or unscored doses. Some doses without a T/C left all or most animals alive at the check, yet need not have been tolerated: survival well below the control is almost never listed, so the zero probably covers shortened survival too. Survivors were counted at the toxicity check, usually on the fifth day, unless a day is given; later deaths do not show. Schedule codes are those of the source, taken here to give the interval after Q, in days (D) or hours (H), and the number of doses after X. For survival time, the PubChem record calls one and a half times the control and up active, and a quarter to a half above the control has no call in these data; cut-offs in other NCI protocols can differ.

Tested on: BDF1 mice, P388 leukemia ip, median survival T/C
Assay: NCI In Vivo Anticancer Drug Screen. Data for tumor model P388 Leukemia (intraperitoneal) in B6D2F1 (BDF1) mice
Settings: T/C endpoint: median survival time, higher T/C = longer survival
Summary of the method: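 Transplantable tumour in mice; compound vs vehicle dosing; survival scored; ratio of treated to control reported.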

[1] = dose: 100.0 mg/kg/injection, schedule: Q01DX009 (ip), vehicle: saline with Tween-80
[2] = dose: 100.0 mg/kg/injection, schedule: Q01DX009 (ip), vehicle: Klucel (hydroxypropylcellulose) (HPC)
[3] = dose: 200.0 mg/kg/injection, schedule: Q04DX003 (ip), vehicle: saline
[4] = dose: 200.0 mg/kg/injection, schedule: Q01DX009 (ip), vehicle: saline with Tween-80

**Q.** CC1=CCC2C(=O)C=CC(=O)C2C1 (stereo unspecified) was tested. Which T/C (dose: 1.3 mg/kg/injection, schedule: Q01DX009 (ip), vehicle: Klucel (hydroxypropylcellulose) (HPC)) did it give?
**A.** The T/C was 127 % of control.

**Q.** What about the T/C (dose: 3.12 mg/kg/injection, schedule: Q01DX009 (ip), vehicle: Klucel (hydroxypropylcellulose) (HPC)) of the same compound?
**A.** Its T/C is 125 % of control.

**Q.** What about the T/C (dose: 6.25 mg/kg/injection, schedule: Q01DX009 (ip), vehicle: Klucel (hydroxypropylcellulose) (HPC)) of the same compound?
**A.** Its T/C is 125 % of control.

**Q.** And the survivor count (dose: 20.0 mg/kg/injection, schedule: Q04DX003 (ip), vehicle: Klucel (hydroxypropylcellulose) (HPC))?
**A.** Its survivor count is 3 of 6.

**Q.** And the survivor count (dose: 28.0 mg/kg/injection, schedule: Q01DX009 (ip), vehicle: Klucel (hydroxypropylcellulose) (HPC))?
**A.** Its survivor count is 4 of 6.

**Q.** What about the survivor count (dose: 40.0 mg/kg/injection, schedule: Q01DX009 (ip), vehicle: Klucel (hydroxypropylcellulose) (HPC)) of the same compound?
**A.** Its survivor count is 1 of 6.

**Q.** And the survivor count (dose: 40.0 mg/kg/injection, schedule: Q04DX003 (ip), vehicle: Klucel (hydroxypropylcellulose) (HPC))?
**A.** Its survivor count is 0 of 6.

**Q.** For CCCCC(CC)C1NCCO1 (stereo unspecified), which survivor count [1] is on record?
**A.** Its survivor count is 6 of 6.

**Q.** With CCCCCCCCCCCCCCCCOc1ccccn1 as the compound, how does the survivor count [2] read?
**A.** Its survivor count is 6 of 6.

**Q.** What about the survivor count (dose: 200.0 mg/kg/injection, schedule: Q01DX009 (ip), vehicle: Klucel (hydroxypropylcellulose) (HPC)) of the same compound?
**A.** The survivor count was 6 of 6.

**Q.** And the survivor count (dose: 400.0 mg/kg/injection, schedule: Q01DX009 (ip), vehicle: Klucel (hydroxypropylcellulose) (HPC))?
**A.** The survivor count was 5 of 6.

**Q.** For c1ccc(COCC[P+](c2ccccc2)(c2ccccc2)c2ccccc2)cc1, which survivor count (dose: 20.0 mg/kg/injection, schedule: Q01DX010 (ip), vehicle: saline) is on record?
**A.** Its survivor count is 1 of 6.

**Q.** For CC1CN1P(=O)(N1CC1C)N1CC1C (stereo unspecified), which T/C (dose: 33.0 mg/kg/injection, schedule: Q04DX003 (ip), vehicle: saline) is on record?
**A.** The T/C was 131 % of control.

**Q.** And the survivor count (dose: 100.0 mg/kg/injection, schedule: Q01DX009 (ip), vehicle: saline)?
**A.** Its survivor count is 2 of 6.

**Q.** What about the survivor count [3] of the same compound?
**A.** Its survivor count is 3 of 6.

**Q.** What about the survivor count (dose: 400.0 mg/kg/injection, schedule: Q04DX003 (ip), vehicle: saline) of the same compound?
**A.** The survivor count was 0 of 6.

**Q.** With CCCCC(CC)COP(=O)(CC(CC)CCCC)OCC(CC)CCCC (stereo unspecified) as the compound, how does the survivor count (dose: 50.0 mg/kg/injection, schedule: Q01DX009 (ip), vehicle: saline with Tween-80) read?
**A.** The survivor count was 6 of 6.

**Q.** What about the survivor count [1] of the same compound?
**A.** Its survivor count is 4 of 6.

**Q.** With CC(C)=CC[P+](CP(c1ccccc1)c1ccccc1)(c1ccccc1)c1ccccc1 as the compound, how does the survivor count (dose: 50.0 mg/kg/injection, schedule: Q01DX005 (ip), vehicle: saline with Tween-80) read?
**A.** The survivor count was 0 of 6.

**Q.** And the survivor count (dose: 100.0 mg/kg/injection, schedule: Q01DX005 (ip), vehicle: saline with Tween-80)?
**A.** The survivor count was 0 of 6.

**Q.** And the survivor count (dose: 200.0 mg/kg/injection, schedule: Q01DX005 (ip), vehicle: saline with Tween-80)?
**A.** Its survivor count is 0 of 6.

**Q.** How did the T/C [4] turn out when C(#Cc1ccccc1)COCC1CO1 (stereo unspecified) was run?
**A.** Its T/C is 125 % of control.

**Q.** What about the T/C (dose: 400.0 mg/kg/injection, schedule: Q01DX009 (ip), vehicle: saline with Tween-80) of the same compound?
**A.** Its T/C is 133 % of control.

**Q.** N#Cc1c(SCc2ccc(Cl)cc2)nsc1Nc1ccc(Cl)cc1 was tested. Which survivor count [1] did it give?
**A.** Its survivor count is 0 of 6.

**Q.** What about the survivor count [4] of the same compound?
**A.** Its survivor count is 0 of 6.

**Q.** CC(CC(=N)N)NC(=O)C1CCC(N)=N1 (stereo unspecified) was tested. Which survivor count (dose: 75.0 mg/kg/injection, schedule: Q01DX009 (ip), vehicle: saline) did it give?
**A.** Its survivor count is 6 of 6.

**Q.** For COc1ccc(/C=C2\CCC3C(CCCC34OCCO4)C2=O)cc1 (stereo unspecified), which T/C [2] is on record?
**A.** The T/C was 127 % of control.

**Q.** Which results are given for O=NN(CCBr)C(=O)NCCBr?
**A.** T/C (dose: 13.0 mg/kg/injection, schedule: Q01DX009 (ip), vehicle: gum acacia): 133 % of control; T/C (dose: 20.0 mg/kg/injection, schedule: Q01DX009 (ip), vehicle: gum acacia): 145 % of control; T/C (dose: 25.0 mg/kg/injection, schedule: Q01DX009 (ip), vehicle: gum acacia): 138 % of control; T/C [3]: 127 % of control
